Entries after “also recorded” stand apart in the source; their conditions may differ. At least one compound was matched to its structure with a doubt left.
Assays:
[1] = test system: Triton X-100 skinned guinea pig taenia coli smooth muscle fibers; test: Isometric force of Triton X-100 skinned smooth muscle fibers; format: cell-based; conditions: wortmannin 1 mM
ROK = conditions: Kureishi et al. 1997; cited from earlier work

COC[C@H]1OC(=O)c2coc3c2[C@@]1(C)C1=C(C3=O)[C@@H]2CCC(=O)[C@@]2(C)C[C@H]1OC(C)=O [wortmannin]
effect on contraction induced by GST-mPAK3 at low calcium ([1]; FIG. 2D): little effect | effect on MLCK-dependent (Ca2+-dependent) contraction at elevated Ca2+ ([1]; data not shown): completely inhibit; also recorded: sufficient to eliminate any Ca^2+-dependent contraction | effect on activity of ROK (ROK): does not affect the activity

From US20020045564A1, “Methods of modulating muscle contraction” (priority 1997, published 2002)
